In patent publication US20200340060A1, “COMPOSITIONS AND METHODS FOR IDENTIFYING AND TREATING LIVER DISEASES AND MONITORING TREATMENT OUTCOMES” (Gilead Sciences, Inc., priority 2017, published 2020):

Columns and labels:
[1] = SOMAscan serum proteomics in NASH subjects treated with selonsertib/simtuzumab, baseline and week 24; set-up: species or system human; conditions: serum protein marker level, week 24 vs baseline
[2] = ELISA assays of circulating NASH secretome candidates, AUROC analysis; set-up: species or system human
[3] = CRN fibrosis stage non-improvers
[4] = hepatic ballooning non-improvers
[5] = lobular inflammation non-improvers

Substance	Median percent CHG at W24 in improver ([1]; CRN fibrosis stage improvers) [%]	Median percent CHG at W24 in Non-improver [1, 3] [%]	Median percent CHG at W24 in improver ([1]; hepatic ballooning improvers) [%]	Median percent CHG at W24 in Non-improver [1, 4] [%]	also measured
NEUREGULIN-1	6.86	−0.69	–	–	–
Laminin	–	–	−8.68	2.15	–
BAFF	–	–	−7.94	2.16	–
Integrin aVb5	–	–	−5.42	1.765	–
MMP-3	2.97	12.69	–	–	–
GDF2	–	–	−21.82	−10.91	–
MAPK14	–	–	−5.45	−0.58	–
SCF	–	–	–	–	Median percent CHG at W24 in Non-improver ([2]; clinical endpoint Ballooning): 1.9%; Median percent CHG at W24 in improver ([2]; clinical endpoint Ballooning): 7.4%
STAT3	–	–	−8.59	−4.58	–
Cathepsin D	–	–	−15.96	4.95	Median percent CHG at W24 in improver ([1]; lobular inflammation improvers): −14.74%; Median percent CHG at W24 in Non-improver [1, 5]: 4.99%
TIMD3	–	–	–	–	Median percent CHG at W24 in improver ([1]; steatosis improvers): −8.75%; Median percent CHG at W24 in Non-improver ([1]; steatosis non-improvers): 4.615%
IGFBP-5	–	–	6.44	−0.695	–
IL-8	–	–	–	–	Median percent CHG at W24 in improver ([1]; lobular inflammation improvers): −15.795%; Median percent CHG at W24 in Non-improver [1, 5]: −4.72%
YKL-40	–	–	–	–	Median percent CHG at W24 in improver ([1]; steatosis improvers): −14.29%; Median percent CHG at W24 in Non-improver ([1]; steatosis non-improvers): 13.28%; Median percent CHG at W24 in Non-improver ([2]; clinical endpoint Inflammation): 4.3%; Median percent CHG at W24 in improver ([2]; clinical endpoint Inflammation): −22%; Median percent CHG at W24 in Non-improver ([2]; clinical endpoint MRIPDFF): 6.5%; Median percent CHG at W24 in improver ([2]; clinical endpoint MRIPDFF): −22%; Median percent CHG at W24 in Non-improver ([2]; clinical endpoint NAS score): 0.5%; Median percent CHG at W24 in improver ([2]; clinical endpoint NAS score): −23.9%; Median percent CHG at W24 in Non-improver ([2]; clinical endpoint Steatosis): 10.8%; Median percent CHG at W24 in improver ([2]; clinical endpoint Steatosis): −22.9%
PLXB2	–	–	−3.7	3.24	–
MP2K2	–	–	10.3	1.985	–
CD63	–	–	4.6	−1.285	–
GP1BA	1.52	−4.35	–	–	–
HGF	–	–	−9.9	−4.445	–
YES	–	–	–	–	Median percent CHG at W24 in improver ([1]; steatosis improvers): −11.71%; Median percent CHG at W24 in Non-improver ([1]; steatosis non-improvers): −0.1%
Tropomyosin 2	–	–	4.09	−0.98	–
JAG1	–	–	0.16	2.6	–
Lumican	–	–	–	–	Median percent CHG at W24 in improver ([1]; steatosis improvers): −6.81%; Median percent CHG at W24 in Non-improver ([1]; steatosis non-improvers): 4.69%
TSP2	–	–	–	–	Median percent CHG at W24 in improver ([1]; steatosis improvers): −25.59%; Median percent CHG at W24 in Non-improver ([1]; steatosis non-improvers): 21.215%
SSRP1	−0.48	−1.51	–	–	–
Integrin a1b1	–	–	–	–	Median percent CHG at W24 in improver ([1]; lobular inflammation improvers): −34.885%; Median percent CHG at W24 in Non-improver [1, 5]: −5.31%; Median percent CHG at W24 in improver ([1]; steatosis improvers): −41.26%; Median percent CHG at W24 in Non-improver ([1]; steatosis non-improvers): −5.025%
calgranulin B	–	–	−28.5	−11.515	–
Adrenomedullin	–	–	−5.44	1.22	–

Substance	Median percent CHG at W24 in improver ([1]; CRN fibrosis stage improvers) [%]	Median percent CHG at W24 in Non-improver [1, 3] [%]	Median percent CHG at W24 in improver ([1]; hepatic ballooning improvers) [%]	Median percent CHG at W24 in Non-improver [1, 4] [%]	also measured
M-CSF R	–	–	–	–	Median percent CHG at W24 in improver ([1]; lobular inflammation improvers): −12.625%; Median percent CHG at W24 in Non-improver [1, 5]: 5.72%
ACE2	–	–	–	–	Median percent CHG at W24 in improver ([1]; lobular inflammation improvers): 2.605%; Median percent CHG at W24 in Non-improver [1, 5]: −2.05%
TNFSF15	−2.49	2.31	–	–	–
EPO-R	–	–	–	–	Median percent CHG at W24 in improver ([1]; lobular inflammation improvers): 2.2%; Median percent CHG at W24 in Non-improver [1, 5]: −1.13%
PCSK9	8.12	−2.85	–	–	–
TGF-b3	2.97	−0.94	–	–	–
LTBP4	–	–	−5.93	2.525	–
carbonic anhydrase II	4.59	−2	–	–	–
Epo	–	–	1.25	18.195	–
TrkC	−4.72	3.16	–	–	–
IL-1a	−4.67	−0.12	–	–	–
Osteopontin	–	–	1.79	−1.54	–
Eotaxin	–	–	–	–	Median percent CHG at W24 in improver ([1]; lobular inflammation improvers): 15.185%; Median percent CHG at W24 in Non-improver [1, 5]: 4.34%
VEGF sR2	–	–	4.03	−1.275	–
PHI	–	–	–	–	Median percent CHG at W24 in improver ([1]; lobular inflammation improvers): −30.06%; Median percent CHG at W24 in Non-improver [1, 5]: −5.37%
pTEN	2.32	−4.94	−5.01	−0.705	–
Collectin Kidney 1	–	–	−13.64	−1.64	–
Coagulation Factor IX	0.35	6.7	–	–	–
Granzyme B	2.74	−1.2	–	–	–
PSMA	−6.53	1.42	–	–	–
LRP8	−2.81	1.37	–	–	–
b-Endorphin	2.33	-0.56	–	–	–
PSD7	–	–	−0.75	1.45	–
PIK3CA/PIK3R1	–	–	–	–	Median percent CHG at W24 in improver ([1]; lobular inflammation improvers): −13.095%; Median percent CHG at W24 in Non-improver [1, 5]: −2.3%
TrkA	–	–	5.74	−2.235	–
IL-17F	–	–	4.93	−1.62	–
RNase H1	2.2	−2.6	−4.06	0.585	–
